# From US8614240B2, “Benzoxazole derivatives having inhibitory activity against interleukin-6, preparation method thereof, and pharmaceutical composition containing the same” (EWHA University-Industry Collaboration Foundation, priority 2010, dated 2013)
# At least one read-out could not be matched to a standard name with certainty.
# System: IL-6 reactive STAT3 reporter gene
# Assay: IL-6 reactive STAT3 reporter gene test (pSTAT3-TA-Luc6 luciferase) in HepG2 cells
# Format: cell-based, human
# Details: 20 ug/ml of sample
# Method: A pSTAT3-TA-Luc6 construct, which comprises 8 more STAT3 DNA binding sequence copies as compared to pSTAT-3-TA-Luc and thus, enables to better reflect STAT3 reporter gene assay, was prepared. STAT3 DNA binding sequence was amplified using pSTAT3-TA-Luc plasmid (Clontech, Palo Alto, Calif.) as the template, and oligonucleotide ([…]. SEQ ID NO: 1 (containing Kpn I site)) and oligonucleotide ([…] GAAGCAACGTTC (containing Xho I site)) as forward primer and reverse primer, respectively, by means of a thermocycler. The amplified PCR product was cloned, separated, and then inserted into Kpn I/Xho I site of pSTAT3-TA-Luc plasmid.
# Human hepatoma cell line, HepG2 cell, was incubated in MEM (Minimal Essential Medium, WelGENE Inc, Daegu, Korea) medium under water-saturated condition at 37° C., 5% CO2. To this medium was added 10% (v/v) fetal bovine serum, streptomycin (100 U/mL) and penicillin (100 U/mL). 6-Well cell culture plate was allowed to grow cells up to 80%, and then the specimen was pre-treated for one hour. […] After adding 30-100 μL of luciferase substrate (Promega luciferase assay system), the mixture was measured by a luminometer within 5 minutes. […]
structure (smiles),measurement,value
"CCc1ccc(Nc2nc3cc(N)ccc3o2)cc1 [Compound 1, N^2-(4-ethylphenyl)benzo[d]oxazole-2,5-diamine]",Inhibition % of IL-6 reactive STAT3 reporter gene activity,97.5%
